Results taken from publication PMC6411751, “Use of machine learning to identify novel, behaviorally active antagonists of the insect odorant receptor co-receptor (Orco) subunit” (Scientific Reports, 2019).

By UniProt entry, the sequences of proteins in these tests, tags left out.
UniProt Q7QCC7, whole entry: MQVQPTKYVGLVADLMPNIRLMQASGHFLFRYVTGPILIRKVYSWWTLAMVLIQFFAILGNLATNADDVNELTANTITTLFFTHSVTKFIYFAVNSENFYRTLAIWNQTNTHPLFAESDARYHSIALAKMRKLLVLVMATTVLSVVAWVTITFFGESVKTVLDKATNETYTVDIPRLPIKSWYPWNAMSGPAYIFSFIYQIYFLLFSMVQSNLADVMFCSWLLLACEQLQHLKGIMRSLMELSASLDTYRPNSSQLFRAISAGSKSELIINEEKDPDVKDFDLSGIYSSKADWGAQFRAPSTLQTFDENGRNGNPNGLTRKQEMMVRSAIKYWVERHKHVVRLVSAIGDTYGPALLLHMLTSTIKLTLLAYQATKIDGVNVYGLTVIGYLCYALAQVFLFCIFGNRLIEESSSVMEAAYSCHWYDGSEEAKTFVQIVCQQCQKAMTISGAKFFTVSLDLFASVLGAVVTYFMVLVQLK

Biological target: Agam\Orco (Anopheles gambiae, UniProt Q7QCC7)
Conditions: Table S1; training actives; Agam\Orco activated by 30 µM OLC12; mean ± SEM (n = 3-8)

`CCc1ccc(NC(=O)CSc2nnc(-c3ccccn3)n2CC)cc1` gave an IC50 of 45 µM.

The structures given here were assigned with low confidence; some may be wrong.
